This test addresses Fragile-X-mental retardation related protein 1 (FXR1) (human (endogenous in THP1)) (UniProt P51114). In words: co-IP.

The chains behind the UniProt entries cited, without tags or fusion partners.
UniProt P51114: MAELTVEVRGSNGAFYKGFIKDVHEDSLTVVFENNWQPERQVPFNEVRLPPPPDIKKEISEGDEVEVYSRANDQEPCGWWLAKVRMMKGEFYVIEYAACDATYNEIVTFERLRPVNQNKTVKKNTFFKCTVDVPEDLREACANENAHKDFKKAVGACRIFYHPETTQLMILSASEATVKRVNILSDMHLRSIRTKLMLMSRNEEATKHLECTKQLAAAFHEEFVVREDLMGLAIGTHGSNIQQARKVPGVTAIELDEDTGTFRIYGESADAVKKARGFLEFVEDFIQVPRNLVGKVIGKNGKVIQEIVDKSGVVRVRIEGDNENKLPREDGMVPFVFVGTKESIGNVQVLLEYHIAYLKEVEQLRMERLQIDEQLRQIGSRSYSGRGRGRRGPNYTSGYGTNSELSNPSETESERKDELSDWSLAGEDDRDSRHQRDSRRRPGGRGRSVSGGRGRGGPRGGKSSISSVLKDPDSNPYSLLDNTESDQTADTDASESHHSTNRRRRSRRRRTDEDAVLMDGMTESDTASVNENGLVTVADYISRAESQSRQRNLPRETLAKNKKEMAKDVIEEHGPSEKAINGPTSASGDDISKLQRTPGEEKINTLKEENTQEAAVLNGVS

Results are given in words; binding and its absence hold for the method and conditions named. In cells and extracts the contact can be indirect. Some binding calls cover weakened binding; strength is not graded here.

B1: NOLC1 (protein, UniProt Q14978 1-699)
chain: MADAGIRRVVPSDLYPLVLGFLRDNQLSEVANKFAKATGATQQDANASSLLDIYSFWLKSAKVPERKLQANGPVAKKAKKKASSSDSEDSSEEEEEVQGPPAKKAAVPAKRVGLPPGKAAAKASESSSSEESSDDDDEEDQKKQPVQKGVKPQAKAAKAPPKKAKSSDSDSDSSSEDEPPKNQKPKITPVTVKAQTKAPPKPARAAPKIANGKAASSSSSSSSSSSSDDSEEEKAAATPKKTVPKKQVVAKAPVKAATTPTRKSSSSEDSSSDEEEEQKKPMKNKPGPYSSVPPPSAPPPKKSLGTQPPKKAVEKQQPVESSEDSSDESDSSSEEEKKPPTKAVVSKATTKPPPAKKAAESSSDSSDSDSSEDDEAPSKPAGTTKNSSNKPAVTTKSPAVKPAAAPKQPVGGGQKLLTRKADSSSSEEESSSSEEEKTKKMVATTKPKATAKAALSLPAKQAPQGSRDSSSDSDSSSSEEEEEKTSKSAVKKKPQKVAGGAAPSKPASAKKGKAESSNSSSSDDSSEEEEEKLKGKGSPRPQAPKANGTSALTAQNGKAAKNSEEEEEEKKKAAVVVSKSGSLKKRKQNEAAKEAETPQAKKIKLQTPNTFPKRKKGEKRASSPFRRVREEEIEVDSRVADNSFDAKRGAAGDWGERANQVLKFTKGKSFRHEKTKKKRGSYRGGSISVQVNSIKFDSE
For the molecule B1, the binding result is given as “binds”.

B2: DDX21 (protein, UniProt Q9NR30 1-783)
chain: MPGKLRSDAGLESDTAMKKGETLRKQTEEKEKKEKPKSDKTEEIAEEEETVFPKAKQVKKKAEPSEVDMNSPKSKKAKKKEEPSQNDISPKTKSLRKKKEPIEKKVVSSKTKKVTKNEEPSEEEIDAPKPKKMKKEKEMNGETREKSPKLKNGFPHPEPDCNPSEAASEESNSEIEQEIPVEQKEGAFSNFPISEETIKLLKGRGVTFLFPIQAKTFHHVYSGKDLIAQARTGTGKTFSFAIPLIEKLHGELQDRKRGRAPQVLVLAPTRELANQVSKDFSDITKKLSVACFYGGTPYGGQFERMRNGIDILVGTPGRIKDHIQNGKLDLTKLKHVVLDEVDQMLDMGFADQVEEILSVAYKKDSEDNPQTLLFSATCPHWVFNVAKKYMKSTYEQVDLIGKKTQKTAITVEHLAIKCHWTQRAAVIGDVIRVYSGHQGRTIIFCETKKEAQELSQNSAIKQDAQSLHGDIPQKQREITLKGFRNGSFGVLVATNVAARGLDIPEVDLVIQSSPPKDVESYIHRSGRTGRAGRTGVCICFYQHKEEYQLVQVEQKAGIKFKRIGVPSATEIIKASSKDAIRLLDSVPPTAISHFKQSAEKLIEEKGAVEALAAALAHISGATSVDQRSLINSNVGFVTMILQCSIEMPNISYAWKELKEQLGEEIDSKVKGMVFLKGKLGVCFDVPTASVTEIQEKWHDSRRWQLSVATEQPELEGPREGYGGFRGQREGSRGFRGQRDGNRRFRGQREGSRGPRGQRSGGGNKSNRSQNKGQKRSFSKAFGQ
Regarding B2, the binding entry is “binds”.

The values are drawn from publication doi:10.1101/2021.12.07.471635.
